Measurements reported in PubChem BioAssay AID1508588 (Peter MacCallum Cancer Centre, 2020)
Assay: 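Knock-downs boosting vemurafenib effects on melanoma cell growth or lactate release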 (primary screen). Cell system: human WM266.4 melanoma cells (BRAF V600 mutant). Reagent: siRNA pool against human genes, 40 nM. Timing: 96 h from transfection to read-out. Conditions: vemurafenib 300 nM (about IC25), added 48 h after transfection, for 48 h; comparison arm got DMSO vehicle only. Detection: 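Ratios to non-targeting siRNA for cell gain, counted as DAPI nuclei after minus before drug and averaged over two replicates, and for absorbance-read medium lactate per cell; both binned into fold-change classes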. Direction: cell gain with vemurafenib: higher = more cell gain than with non-targeting siRNA; lactate per cell with vemurafenib: higher = more lactate made per cell. Rule for the call: 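a knock-down counts as enhancing when its fold-change classes with vehicle and with vemurafenib, taken together, show a stronger drug effect on cell gain or lactate per cell; exact class pairs not stated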. Calls: active = enhances vemurafenib effect; inactive = no enhancement seen.
The whole screen tested about 18,000 reagents; shown is a random part of them. Of all reagents, 790 (4.4%) got an active call. 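Calls rest on a combination of fold-change classes in drug and vehicle arms, not all shown here.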 The numbers tell different reagents against one gene apart.

The first 4 entries, to show the layout:
FPGT
- cell gain with vemurafenib: 0.89
- lactate per cell with vemurafenib: 1.16
- outcome: inactive

CCT5
- cell gain with vemurafenib: 0.29
- lactate per cell with vemurafenib: 1.69
- outcome: inactive

TNFAIP8
- cell gain with vemurafenib: 0.7
- lactate per cell with vemurafenib: 0.5
- outcome: inactive

LRRC34
- cell gain with vemurafenib: 0.48
- lactate per cell with vemurafenib: 0.31
- outcome: active

The list itself, from the start:
FPGT
- cell gain with vemurafenib: 0.89
- lactate per cell with vemurafenib: 1.16
- outcome: inactive

CCT5
- cell gain with vemurafenib: 0.29
- lactate per cell with vemurafenib: 1.69
- outcome: inactive

TNFAIP8
- cell gain with vemurafenib: 0.7
- lactate per cell with vemurafenib: 0.5
- outcome: inactive

LRRC34
- cell gain with vemurafenib: 0.48
- lactate per cell with vemurafenib: 0.31
- outcome: active

INTS13
- cell gain with vemurafenib: 0.46
- lactate per cell with vemurafenib: 1.44
- outcome: inactive

PRIM1
- cell gain with vemurafenib: 0.47
- lactate per cell with vemurafenib: 1.88
- outcome: inactive

COX5B
- cell gain with vemurafenib: 0.9
- lactate per cell with vemurafenib: 1.96
- outcome: inactive

MEA1
- cell gain with vemurafenib: 0.3
- lactate per cell with vemurafenib: 1.98
- outcome: inactive

AMY2A
- cell gain with vemurafenib: 0.59
- lactate per cell with vemurafenib: 0.65
- outcome: active

PLD6
- cell gain with vemurafenib: 0.44
- lactate per cell with vemurafenib: 0.06
- outcome: inactive

OR5AU1
- cell gain with vemurafenib: 0.36
- lactate per cell with vemurafenib: 2.36
- outcome: inactive

POU2AF1
- cell gain with vemurafenib: 0.67
- lactate per cell with vemurafenib: 1.48
- outcome: inactive

NHSL2 #1
- cell gain with vemurafenib: -0.06
- lactate per cell with vemurafenib: 4.11
- outcome: inactive

NHSL2 #2
- cell gain with vemurafenib: 0.92
- lactate per cell with vemurafenib: 0.64
- outcome: inactive

NAALAD2
- cell gain with vemurafenib: 0.4
- lactate per cell with vemurafenib: 0.72
- outcome: inactive

ASS1
- cell gain with vemurafenib: 0.46
- lactate per cell with vemurafenib: 0.84
- outcome: inactive

AGBL3
- cell gain with vemurafenib: 0.46
- lactate per cell with vemurafenib: 2.27
- outcome: inactive

ABCA13
- cell gain with vemurafenib: 0.69
- lactate per cell with vemurafenib: 0.46
- outcome: inactive

TIMM29
- cell gain with vemurafenib: 0.41
- lactate per cell with vemurafenib: 1.73
- outcome: inactive

POLE
- cell gain with vemurafenib: 0.11
- lactate per cell with vemurafenib: 0.56
- outcome: inactive

MTRFR
- cell gain with vemurafenib: 0.8
- lactate per cell with vemurafenib: 1.06
- outcome: inactive

CD93
- cell gain with vemurafenib: 0.77
- lactate per cell with vemurafenib: 0.96
- outcome: inactive

TGM5
- cell gain with vemurafenib: 0.6
- lactate per cell with vemurafenib: 1.03
- outcome: inactive

LRRC75A
- cell gain with vemurafenib: 0.78
- lactate per cell with vemurafenib: 0.69
- outcome: inactive

GEMIN8
- cell gain with vemurafenib: 0.69
- lactate per cell with vemurafenib: 0.76
- outcome: inactive

ZEB2
- cell gain with vemurafenib: 0.85
- lactate per cell with vemurafenib: 1.04
- outcome: inactive

LRRC36
- cell gain with vemurafenib: 0.23
- lactate per cell with vemurafenib: 0.82
- outcome: inactive

ADCY6
- cell gain with vemurafenib: 0.48
- lactate per cell with vemurafenib: 1.42
- outcome: inactive

SCN2A
- cell gain with vemurafenib: 0.62
- lactate per cell with vemurafenib: 0.26
- outcome: inactive

FAAP24
- cell gain with vemurafenib: 0.94
- lactate per cell with vemurafenib: 0.76
- outcome: inactive

SPPL2A
- cell gain with vemurafenib: 0.9
- lactate per cell with vemurafenib: 0.68
- outcome: inactive

GLRX
- cell gain with vemurafenib: 0.33
- lactate per cell with vemurafenib: 0.24
- outcome: inactive

OR8D1
- cell gain with vemurafenib: 0.82
- lactate per cell with vemurafenib: 0.8
- outcome: inactive

CALHM4
- cell gain with vemurafenib: 0.7
- lactate per cell with vemurafenib: 0.77
- outcome: inactive

STKLD1
- cell gain with vemurafenib: 0.76
- lactate per cell with vemurafenib: 0.82
- outcome: inactive

PTGER3
- cell gain with vemurafenib: 0.75
- lactate per cell with vemurafenib: 0.81
- outcome: inactive

CACNA1G
- cell gain with vemurafenib: 0.45
- lactate per cell with vemurafenib: 1.08
- outcome: inactive

GPR152
- cell gain with vemurafenib: 0.01
- lactate per cell with vemurafenib: 1.18
- outcome: inactive

ZNF22
- cell gain with vemurafenib: 0.78
- lactate per cell with vemurafenib: 0.66
- outcome: inactive

KHDRBS3
- cell gain with vemurafenib: 1.18
- lactate per cell with vemurafenib: 1.05
- outcome: inactive

MMD2
- cell gain with vemurafenib: 0.88
- lactate per cell with vemurafenib: 0.79
- outcome: inactive

ADCK2
- cell gain with vemurafenib: 0.34
- lactate per cell with vemurafenib: 1.61
- outcome: inactive

MAGEA5P
- cell gain with vemurafenib: 0.63
- lactate per cell with vemurafenib: 0.8
- outcome: inactive

HLX
- cell gain with vemurafenib: 0.15
- lactate per cell with vemurafenib: 1.89
- outcome: inactive

VDR
- cell gain with vemurafenib: 0.47
- lactate per cell with vemurafenib: 0.99
- outcome: inactive

PRSS42P
- cell gain with vemurafenib: 0.04
- lactate per cell with vemurafenib: 1.56
- outcome: inactive

GOLGA4
- cell gain with vemurafenib: 0.81
- lactate per cell with vemurafenib: 0.67
- outcome: inactive

DNHD1 #1
- cell gain with vemurafenib: 0.85
- lactate per cell with vemurafenib: 1.16
- outcome: inactive

DNHD1 #2
- cell gain with vemurafenib: 0.66
- lactate per cell with vemurafenib: 0.87
- outcome: inactive

EXTL2
- cell gain with vemurafenib: 0.46
- lactate per cell with vemurafenib: 0.55
- outcome: inactive

PPFIA1
- cell gain with vemurafenib: 0.55
- lactate per cell with vemurafenib: 1.4
- outcome: inactive

SYT16
- cell gain with vemurafenib: 0.12
- lactate per cell with vemurafenib: 1.68
- outcome: inactive
